From US20170001953A1, “FUMARATE COMPOUNDS, PHARMACEUTICAL COMPOSITIONS THEREOF, AND METHODS OF USE” (priority 2015, published 2017)
Some entries share one result that the patent states for a list of compounds.

Legend:
[1] = Stability of fumarate compounds in PBS buffer; format: physicochemical; details: PBS 50 mM, pH 7.0 to 7.4, 20 to 37° C., 60 min, HPLC
porcine liver esterase = experiment: Hydrolysis of fumarate compounds in vitro by porcine liver esterase; format: in vitro ADME; details: porcine liver esterase in PBS buffer pH 7.0 to 8.0, 20 to 37° C., ca. 24 h, HPLC

| SMILES | stable (stability in PBS buffer) [1] [%] | converted to MHF, monoester fumarates and/or fumaric acid (porcine liver esterase) [%] |
| --- | --- | --- |
| COC(=O)/C=C/C(=O)OCCNC(=O)OCc1ccccc1 [Compound 2, O4-[2-(Benzyloxycarbonylamino)ethyl] O1-methyl (E)-but-2-enedioate] | > 85 | > 25 |
| COC(=O)/C=C/C(=O)OCCNC(=O)OC [Compound 3, O4-[2-(Methoxycarbonylamino)ethyl] O1-methyl (E)-but-2-enedioate] | > 85 | > 25 |
| CCOC(=O)NCCOC(=O)/C=C/C(=O)OC [Compound 4, O4-[2-(Ethoxycarbonylamino)ethyl] O1-methyl (E)-but-2-enedioate] | > 85 | > 25 |
| COC(=O)/C=C/C(=O)OCCNC(=O)OC(C)C [Compound 5, O4-[2-(Isopropoxycarbonylamino)ethyl] O1-methyl (E)-but-2-enedioate] | > 85 | > 25 |
| COC(=O)/C=C/C(=O)OCCNC(=O)OC1CCCCC1 [Compound 6, O4-[2-(Cyclohexoxycarbonylamino)ethyl] O1-methyl (E)-but-2-enedioate] | > 85 | > 25 |
| COC(=O)/C=C/C(=O)OC[C@@H](C)NC(=O)OC(C)(C)C [Compound 8, O4-[(2R)-2-(tert-Butoxycarbonylamino)propyl] O1-methyl (E)-but-2-enedioate] | > 85 | > 25 |
| COC(=O)/C=C/C(=O)OC[C@@H](C)NC(=O)OCc1ccccc1 [Compound 9, O4-[(2R)-2-(Benzyloxycarbonylamino)propyl] O1-methyl (E)-but-2-enedioate] | > 85 | > 25 |
| COC(=O)/C=C/C(=O)OC[C@@H](C)NC(=O)OC [Compound 10, O4-[(2R)-2-(Methoxycarbonylamino)propyl] O1-methyl (E)-but-2-enedioate] | > 85 | > 25 |
| CCOC(=O)N[C@H](C)COC(=O)/C=C/C(=O)OC [Compound 11, O4-[(2R)-2-(Ethoxycarbonylamino)propyl] O1-methyl (E)-but-2-enedioate] | > 85 | > 25 |
| COC(=O)/C=C/C(=O)OC[C@@H](C)NC(=O)OC(C)C [Compound 12, O4-[(2R)-2-(Isopropoxycarbonylamino)propyl] O1-methyl (E)-but-2-enedioate] | > 85 | > 25 |
| COC(=O)/C=C/C(=O)OC[C@@H](C)NC(=O)OC1CCCCC1 [Compound 13, O4-[(2R)-2-(Cyclohexoxycarbonylamino)propyl] O1-methyl (E)-but-2-enedioate] | > 85 | > 25 |
| COC(=O)/C=C/C(=O)OC[C@H](C)NC(=O)OC(C)(C)C [Compound 15, O4-[(2S)-2-(tert-Butoxycarbonylamino)propyl] O1-methyl (E)-but-2-enedioate] | > 85 | > 25 |
| COC(=O)/C=C/C(=O)OC[C@H](C)NC(=O)OCc1ccccc1 [Compound 16, O4-[(2S)-2-(Benzyloxycarbonylamino)propyl] O1-methyl (E)-but-2-enedioate] | > 85 | > 25 |
| COC(=O)/C=C/C(=O)OC[C@H](C)NC(=O)OC [Compound 17, O4-[(2S)-2-(Methoxycarbonylamino)propyl] O1-methyl (E)-but-2-enedioate] | > 85 | > 25 |
| CCOC(=O)N[C@@H](C)COC(=O)/C=C/C(=O)OC [Compound 18, O4-[(2S)-2-(Ethoxycarbonylamino)propyl] O1-methyl (E)-but-2-enedioate] | > 85 | > 25 |
| COC(=O)/C=C/C(=O)OC[C@H](C)NC(=O)OC(C)C [Compound 19, O4-[(2S)-2-(Isopropoxycarbonylamino)propyl] O1-methyl (E)-but-2-enedioate] | > 85 | > 25 |
| COC(=O)/C=C/C(=O)OC[C@H](C)NC(=O)OC1CCCCC1 [Compound 20, O4-[(2S)-2-(Cyclohexoxycarbonylamino)propyl] O1-methyl (E)-but-2-enedioate] | > 85 | > 25 |
| COC(=O)/C=C/C(=O)OC[C@H](NC(=O)OC(C)(C)C)C(C)C [Compound 22, O4-[(2R)-2-(tert-Butoxycarbonylamino)-3-methyl-butyl] O1-methyl (E)-but-2-enedioate] | > 85 | > 25 |

| SMILES | stable (stability in PBS buffer) [1] [%] | converted to MHF, monoester fumarates and/or fumaric acid (porcine liver esterase) [%] |
| --- | --- | --- |
| COC(=O)/C=C/C(=O)OC[C@H](NC(=O)OCc1ccccc1)C(C)C [Compound 23, O4-[(2R)-2-(Benzyloxycarbonylamino)-3-methyl-butyl] O1-methyl (E)-but-2-enedioate] | > 85 | > 25 |
| COC(=O)/C=C/C(=O)OC[C@H](NC(=O)OC(C)C)C(C)C [Compound 24, O4-[(2R)-2-(Isopropoxycarbonylamino)-3-methyl-butyl] O1-methyl (E)-but-2-enedioate] | > 85 | > 25 |
| COC(=O)/C=C/C(=O)OC[C@@H](NC(=O)OC(C)(C)C)C(C)C [Compound 25, O4-[(2S)-2-(tert-Butoxycarbonylamino)-3-methyl-butyl] O1-methyl (E)-but-2-enedioate] | > 85 | > 25 |
| COC(=O)/C=C/C(=O)OC[C@@H](NC(=O)OCc1ccccc1)C(C)C [Compound 26, O4-[(2S)-2-(Benzyloxycarbonylamino)-3-methyl-butyl] O1-methyl (E)-but-2-enedioate] | > 85 | > 25 |
| COC(=O)/C=C/C(=O)OC[C@@H](NC(=O)OC(C)C)C(C)C [Compound 27, O4-[(2S)-2-(Isopropoxycarbonylamino)-3-methyl-butyl] O1-methyl (E)-but-2-enedioate] | > 85 | > 25 |
| CC(C)OC(=O)/C=C/C(=O)OCCNC(=O)OC(C)(C)C [Compound 28, O1-[2-(tert-Butoxycarbonylamino)ethyl] O4-isopropyl (E)-but-2-enedioate] | > 85 | > 25 |
| CC(C)OC(=O)/C=C/C(=O)OCCNC(=O)OCc1ccccc1 [Compound 29, O1-[2-(Benzyloxycarbonylamino)ethyl] O4-isopropyl (E)-but-2-enedioate] | > 85 | > 25 |
| CC(C)OC(=O)/C=C/C(=O)OCCNC(=O)OC(C)C [Compound 30, O1-[2-(Isopropoxycarbonylamino)ethyl] O4-isopropyl (E)-but-2-enedioate] | > 85 | > 25 |
| CC(C)OC(=O)/C=C/C(=O)OC[C@@H](C)NC(=O)OC(C)(C)C [Compound 31, O1-[(2R)-2-(tert-Butoxycarbonylamino)propyl] O4-isopropyl (E)-but-2-enedioate] | > 85 | > 25 |
| CC(C)OC(=O)/C=C/C(=O)OC[C@@H](C)NC(=O)OCc1ccccc1 [Compound 32, O1-[(2R)-2-(Benzyloxycarbonylamino)propyl] O4-isopropyl (E)-but-2-enedioate] | > 85 | > 25 |
| CC(C)OC(=O)/C=C/C(=O)OC[C@@H](C)NC(=O)OC(C)C [Compound 33, O1-[(2R)-2-(Isopropoxycarbonylamino)propyl] O4-isopropyl (E)-but-2-enedioate] | > 85 | > 25 |
| CC(C)OC(=O)/C=C/C(=O)OC[C@H](C)NC(=O)OC(C)(C)C [Compound 34, O1-[(2S)-2-(tert-Butoxycarbonylamino)propyl] O4-isopropyl (E)-but-2-enedioate] | > 85 | > 25 |
| CC(C)OC(=O)/C=C/C(=O)OC[C@H](C)NC(=O)OCc1ccccc1 [Compound 35, O1-[(2S)-2-(Benzyloxycarbonylamino)propyl] O4-isopropyl (E)-but-2-enedioate] | > 85 | > 25 |
| CC(C)OC(=O)/C=C/C(=O)OC[C@H](C)NC(=O)OC(C)C [Compound 36, O1-[(2S)-2-(Isopropoxycarbonylamino)propyl] O4-isopropyl (E)-but-2-enedioate] | > 85 | > 25 |
| COC(=O)/C=C/C(=O)OCCCNC(=O)OC(C)(C)C [Compound 37, O4-[3-(tert-Butoxycarbonylamino)propyl] O1-methyl (E)-but-2-enedioate] | > 85 | > 25 |
| COC(=O)/C=C/C(=O)OCCCNC(=O)OCc1ccccc1 [Compound 38, O4-[3-(Benzyloxycarbonylamino)propyl] O1-methyl (E)-but-2-enedioate] | > 85 | > 25 |
| COC(=O)/C=C/C(=O)OCCCNC(=O)OC(C)C [Compound 39, O4-[3-(Isopropoxycarbonylamino)propyl] O1-methyl (E)-but-2-enedioate] | > 85 | > 25 |
